Measured values as given in patent US20250134667A1, “BIOABSORBABLE AND PHOTOCURABLE COMPOSITION, BIOABSORBABLE GUIDED TISSUE REGENERATION COMPOSITION, AND GRAFTING METHOD USING SAME” (priority 2022, published 2025).
Entries after “also recorded” stand apart in the source; their conditions may differ. Part of at least one peptide drawing is inferred or uncertain, most often the ends. For some of these results: At least one structure is not confirmed: it was looked up by name or label, or the drawing left a doubt. Peptide text beside a SMILES is read from it.

Experiments:
[1] = test system: Aggregatibacter actinomycetemcomitans; test: Inhibiting growth of periodontitis-causing bacteria (absorbance at 600 nm); assay type: cell-based; conditions: Aa, peptide 500 μM vs minocycline 500 ng/ml
[2] = test system: artificial biofilm of Aggregatibacter actinomycetemcomitans and Porphyromonas gingivalis; test: Antibacterial activity in artificial biofilm on titanium disk (LIVE/DEAD staining); assay type: cell-based; conditions: 24 hours after inoculation; for killed bacteria (red) in biofilm: minocycline 1 μg/ml, peptide 50-500 μg/ml
plkBa = test: Western blot of plkBa in Raw264.7 cells; assay type: cell-based, mouse; conditions: 200 μM peptide 30 minutes, then 1 μg/ml LPS, 8 hours
Protocol: (§1) Raw264.7 cells were purchased from ATCC (American Type Culture Collection) and used in the experiment. Raw264.7 cells were cultured in a CO2 incubator at 37° C. supplied with 5% CO2 and 95% air using DMEM (Dulbecco's modified Eagle medium) medium supplemented with 10% FBS and 100 units/ml antibiotics (penicillin-streptomycin).
(§2) Raw264.7 cells were treated with 200 μM of the peptide having the amino acid sequence of SEQ ID NO: 1 for 30 minutes, and then treated with 1 μg/ml LPS (lipopolysaccharide, Merck, L3024). After 8 hours, the treated cells were collected, protease inhibitor cocktail and phosphatase inhibitor cocktail were added to Radioimmunoprecipitation assay buffer (RIPA buffer solution, Thermo Fisher, 89900), and the cells were treated to lyse the cells. After centrifuging the cell lysate and collecting the supernatant, the concentration of the cell lysate was measured using a bicinchoninic acid assay (BCA assay, Thermo Fisher, 23227), and RIPA buffer solution was added thereto to prepare the cell lysate to a final concentration of 5 mg/mL. Then, it was mixed with a buffer solution including 1 M Tris-HCl (pH 6.8), 50% glycerol, and 10% SDS in a 4:1 ratio, and then sodium dodecyl sulfate-poly acrylamide gel electrophoresis (SDS-PAGE) was performed. […]

IL-6 = test: ELISA of IL-6 secreted by LPS-treated THP-1 derived macrophages; assay type: cell-based, human; conditions: THP-1 macrophages, 1 μg/ml LPS, 200 μM peptide, medium after 24 hours; IL-4 20 ng/ml positive control
Porphyromonas gingivalis = test: Inhibiting growth of periodontitis-causing bacteria (absorbance at 600 nm); assay type: cell-based; conditions: Pg, peptide 100, 250, 500 μM vs minocycline 500 ng/ml
TNF-α = test: ELISA of TNF-α secreted by LPS-treated THP-1 derived macrophages; assay type: cell-based, human; conditions: THP-1 macrophages, 1 μg/ml LPS, 200 μM peptide, medium after 24 hours; IL-4 20 ng/ml positive control
pNFκB = test: Western blot of pNFkB in Raw264.7 cells; assay type: cell-based, mouse; conditions: 200 μM peptide 30 minutes, then 1 μg/ml LPS, 8 hours
Protocol: as §1
as §2, with “Raw264.7 cells were treated with 200 μM of the peptide having the amino acid sequence of SEQ ID NO: 1 for 30 minutes, and then treated with 1 μg/ml LPS (lipopolysaccharide, Merck, L3024).” left out

Compound | antibacterial effect compared to minocycline [1] | concentration from which killed bacteria (red) were observed in biofilm [2] | killed bacteria (red) in biofilm [2] | concentration from which killed bacteria (red) were observed in biofilm ([2]; same value in μM) | expression of plkBa (plkBa) | IL-6 values (ELISA) (IL-6) | antibacterial effect compared to minocycline (Porphyromonas gingivalis) | TNF-α values (ELISA) (TNF-α) | expression of pNFκB (pNFκB)
C[C@@H](O)[C@H](NC(=O)[C@H](CO)NC(=O)[C@H](CS)NC(=O)[C@H](CCCCN)NC(=O)CN)C(=O)N[C@@H](CCCNC(=N)N)C(=O)NCC(=O)N[C@@H](CCCNC(=N)N)C(=O)N[C@@H](CCCCN)C(=O)N[C@@H](CO)C(=O)N[C@@H](CO)C(=O)N[C@@H](CCCNC(=N)N)C(=O)N[C@@H](CCCNC(=N)N)C(=O)N[C@@H](CCCCN)C(=O)N[C@@H](CCCCN)C(N)=O [SEQ ID NO: 1, GKCSTRGRKSSRRKK] (H-GKCSTRGRKSSRRKK-NH2; N-terminus and C-terminus assumed) | survival rate was higher than when treated with minocycline 500 ng/ml, but showed a similar effect; also recorded: equal or similar antibacterial activity compared to minocycline | ≥ 50 µg/mL | penetrates the biofilm and has antibacterial activity; also recorded: it had antibacterial activity and further cell penetrating ability | ≥ 29 µM | suppressed | anti-inflammatory activity almost similar to that of IL-4; also recorded: lowered to a similar level as when treated with IL-4 | better effect than minocycline in all concentration ranges; also recorded: equal or similar antibacterial activity compared to minocycline | anti-inflammatory activity almost similar to that of IL-4; also recorded: lowered to a similar level as when treated with IL-4 | suppressed; also recorded: inhibits the expression of pNF-κB induced by LPS
CN(C)c1ccc(O)c2c1C[C@H]1C[C@H]3[C@H](N(C)C)C(O)=C(C(N)=O)C(=O)[C@@]3(O)C(O)=C1C2=O [minocycline, reference compound] | – | – | almost no killed bacteria (red) were observed | – | – | – | – | – | –
